Laboratory results from patent US8492391B2, “Substituted 6-(2-hydroxybenzylamino)purine derivatives, their use as medicaments and compositions containing these derivatives” (Univerzita Palackeho V Olomouci, priority 2009, dated 2013).

System: β-adrenergic receptors
Test: Modulation of the activity of β-adrenergic receptors (isoproterenol-induced cAMP synthesis in C6 glioma)
Assay type: cell-based
Details: rat C6 glioma, cAMP synthesis induced by 5 μM (−) isoproterenol, 30 min
Method: Mechanism of action of novel compounds is presented on FIG. 2. Rat C6 glioma (ATCC No CCL 107) was cultivated in monolayer in serum-free chemically defined medium containing Ham's F10/minimal essential medium (1:1 vol/vol), 2 mM L-glutamine, 1% (vol/vol) minimal essential medium vitamins (100×), 1% (vol/vol) minimal essential medium nonessential amino acids (100×), 100 U/ml penicillin, 100 μg/ml streptomycin and 30 nM sodium selenite. Incubation was at 37° C. in a humidified atmosphere. Assays were performed in the logaritmic growth phase at a density of 2.5×10^5 cells/cm^2. Intracellular cAMP synthesis was induced by addition of 5 μM (−) isoproterenol. After 30 min incubation at 37° C. the medium was removed and the cellular amount of cAMP determined using the cAMP-enzyme immunoassay kit of Amersham. The I50 is determined from a dose-response curve in duplicate. The effect of several novel substituted 6-(2-hydroxybenzylamino)purine derivatives was measured after simultaneous addition with isoproterenol.
As P2Y1-like and A2 purinergic receptors, negatively and positively coupled to adenylate cyclase respectively, are present on rat C6 glioma. It has to be determined if the modulation of the synthesis of cAMP is due to inhibition of the activation of β-adrenergic receptors by isoproterenol are due to activation of purinergic receptors.

CC[C@H](CO)Nc1nc(NCc2ccccc2)c2ncn(C(C)C)c2n1 [ROSC, roscovitine, reference compound]
IC50 (μM) (modulation of the activity of β-adrenergic receptors): inactive
